Reference: publication PMC4466309
These are yes or no findings as the source states them, for the method shown. In cells and extracts the contact can be indirect. These calls come from enrichment with a bait or labelling near it, and not all partners need be listed. Tags and fused reporters may be left off the sequences shown. One block for each molecule: values may come before it.

The chains behind the UniProt entries cited, without tags or fusion partners.
UniProt Q14469: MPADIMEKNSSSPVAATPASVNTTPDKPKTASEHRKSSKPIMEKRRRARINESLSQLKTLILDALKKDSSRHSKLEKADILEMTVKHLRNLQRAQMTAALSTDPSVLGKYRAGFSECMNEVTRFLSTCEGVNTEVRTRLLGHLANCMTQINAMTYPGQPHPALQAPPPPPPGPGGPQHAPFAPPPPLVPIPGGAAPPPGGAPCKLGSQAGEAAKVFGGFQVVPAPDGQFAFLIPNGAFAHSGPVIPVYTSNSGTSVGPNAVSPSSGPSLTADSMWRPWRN
UniProt O75592: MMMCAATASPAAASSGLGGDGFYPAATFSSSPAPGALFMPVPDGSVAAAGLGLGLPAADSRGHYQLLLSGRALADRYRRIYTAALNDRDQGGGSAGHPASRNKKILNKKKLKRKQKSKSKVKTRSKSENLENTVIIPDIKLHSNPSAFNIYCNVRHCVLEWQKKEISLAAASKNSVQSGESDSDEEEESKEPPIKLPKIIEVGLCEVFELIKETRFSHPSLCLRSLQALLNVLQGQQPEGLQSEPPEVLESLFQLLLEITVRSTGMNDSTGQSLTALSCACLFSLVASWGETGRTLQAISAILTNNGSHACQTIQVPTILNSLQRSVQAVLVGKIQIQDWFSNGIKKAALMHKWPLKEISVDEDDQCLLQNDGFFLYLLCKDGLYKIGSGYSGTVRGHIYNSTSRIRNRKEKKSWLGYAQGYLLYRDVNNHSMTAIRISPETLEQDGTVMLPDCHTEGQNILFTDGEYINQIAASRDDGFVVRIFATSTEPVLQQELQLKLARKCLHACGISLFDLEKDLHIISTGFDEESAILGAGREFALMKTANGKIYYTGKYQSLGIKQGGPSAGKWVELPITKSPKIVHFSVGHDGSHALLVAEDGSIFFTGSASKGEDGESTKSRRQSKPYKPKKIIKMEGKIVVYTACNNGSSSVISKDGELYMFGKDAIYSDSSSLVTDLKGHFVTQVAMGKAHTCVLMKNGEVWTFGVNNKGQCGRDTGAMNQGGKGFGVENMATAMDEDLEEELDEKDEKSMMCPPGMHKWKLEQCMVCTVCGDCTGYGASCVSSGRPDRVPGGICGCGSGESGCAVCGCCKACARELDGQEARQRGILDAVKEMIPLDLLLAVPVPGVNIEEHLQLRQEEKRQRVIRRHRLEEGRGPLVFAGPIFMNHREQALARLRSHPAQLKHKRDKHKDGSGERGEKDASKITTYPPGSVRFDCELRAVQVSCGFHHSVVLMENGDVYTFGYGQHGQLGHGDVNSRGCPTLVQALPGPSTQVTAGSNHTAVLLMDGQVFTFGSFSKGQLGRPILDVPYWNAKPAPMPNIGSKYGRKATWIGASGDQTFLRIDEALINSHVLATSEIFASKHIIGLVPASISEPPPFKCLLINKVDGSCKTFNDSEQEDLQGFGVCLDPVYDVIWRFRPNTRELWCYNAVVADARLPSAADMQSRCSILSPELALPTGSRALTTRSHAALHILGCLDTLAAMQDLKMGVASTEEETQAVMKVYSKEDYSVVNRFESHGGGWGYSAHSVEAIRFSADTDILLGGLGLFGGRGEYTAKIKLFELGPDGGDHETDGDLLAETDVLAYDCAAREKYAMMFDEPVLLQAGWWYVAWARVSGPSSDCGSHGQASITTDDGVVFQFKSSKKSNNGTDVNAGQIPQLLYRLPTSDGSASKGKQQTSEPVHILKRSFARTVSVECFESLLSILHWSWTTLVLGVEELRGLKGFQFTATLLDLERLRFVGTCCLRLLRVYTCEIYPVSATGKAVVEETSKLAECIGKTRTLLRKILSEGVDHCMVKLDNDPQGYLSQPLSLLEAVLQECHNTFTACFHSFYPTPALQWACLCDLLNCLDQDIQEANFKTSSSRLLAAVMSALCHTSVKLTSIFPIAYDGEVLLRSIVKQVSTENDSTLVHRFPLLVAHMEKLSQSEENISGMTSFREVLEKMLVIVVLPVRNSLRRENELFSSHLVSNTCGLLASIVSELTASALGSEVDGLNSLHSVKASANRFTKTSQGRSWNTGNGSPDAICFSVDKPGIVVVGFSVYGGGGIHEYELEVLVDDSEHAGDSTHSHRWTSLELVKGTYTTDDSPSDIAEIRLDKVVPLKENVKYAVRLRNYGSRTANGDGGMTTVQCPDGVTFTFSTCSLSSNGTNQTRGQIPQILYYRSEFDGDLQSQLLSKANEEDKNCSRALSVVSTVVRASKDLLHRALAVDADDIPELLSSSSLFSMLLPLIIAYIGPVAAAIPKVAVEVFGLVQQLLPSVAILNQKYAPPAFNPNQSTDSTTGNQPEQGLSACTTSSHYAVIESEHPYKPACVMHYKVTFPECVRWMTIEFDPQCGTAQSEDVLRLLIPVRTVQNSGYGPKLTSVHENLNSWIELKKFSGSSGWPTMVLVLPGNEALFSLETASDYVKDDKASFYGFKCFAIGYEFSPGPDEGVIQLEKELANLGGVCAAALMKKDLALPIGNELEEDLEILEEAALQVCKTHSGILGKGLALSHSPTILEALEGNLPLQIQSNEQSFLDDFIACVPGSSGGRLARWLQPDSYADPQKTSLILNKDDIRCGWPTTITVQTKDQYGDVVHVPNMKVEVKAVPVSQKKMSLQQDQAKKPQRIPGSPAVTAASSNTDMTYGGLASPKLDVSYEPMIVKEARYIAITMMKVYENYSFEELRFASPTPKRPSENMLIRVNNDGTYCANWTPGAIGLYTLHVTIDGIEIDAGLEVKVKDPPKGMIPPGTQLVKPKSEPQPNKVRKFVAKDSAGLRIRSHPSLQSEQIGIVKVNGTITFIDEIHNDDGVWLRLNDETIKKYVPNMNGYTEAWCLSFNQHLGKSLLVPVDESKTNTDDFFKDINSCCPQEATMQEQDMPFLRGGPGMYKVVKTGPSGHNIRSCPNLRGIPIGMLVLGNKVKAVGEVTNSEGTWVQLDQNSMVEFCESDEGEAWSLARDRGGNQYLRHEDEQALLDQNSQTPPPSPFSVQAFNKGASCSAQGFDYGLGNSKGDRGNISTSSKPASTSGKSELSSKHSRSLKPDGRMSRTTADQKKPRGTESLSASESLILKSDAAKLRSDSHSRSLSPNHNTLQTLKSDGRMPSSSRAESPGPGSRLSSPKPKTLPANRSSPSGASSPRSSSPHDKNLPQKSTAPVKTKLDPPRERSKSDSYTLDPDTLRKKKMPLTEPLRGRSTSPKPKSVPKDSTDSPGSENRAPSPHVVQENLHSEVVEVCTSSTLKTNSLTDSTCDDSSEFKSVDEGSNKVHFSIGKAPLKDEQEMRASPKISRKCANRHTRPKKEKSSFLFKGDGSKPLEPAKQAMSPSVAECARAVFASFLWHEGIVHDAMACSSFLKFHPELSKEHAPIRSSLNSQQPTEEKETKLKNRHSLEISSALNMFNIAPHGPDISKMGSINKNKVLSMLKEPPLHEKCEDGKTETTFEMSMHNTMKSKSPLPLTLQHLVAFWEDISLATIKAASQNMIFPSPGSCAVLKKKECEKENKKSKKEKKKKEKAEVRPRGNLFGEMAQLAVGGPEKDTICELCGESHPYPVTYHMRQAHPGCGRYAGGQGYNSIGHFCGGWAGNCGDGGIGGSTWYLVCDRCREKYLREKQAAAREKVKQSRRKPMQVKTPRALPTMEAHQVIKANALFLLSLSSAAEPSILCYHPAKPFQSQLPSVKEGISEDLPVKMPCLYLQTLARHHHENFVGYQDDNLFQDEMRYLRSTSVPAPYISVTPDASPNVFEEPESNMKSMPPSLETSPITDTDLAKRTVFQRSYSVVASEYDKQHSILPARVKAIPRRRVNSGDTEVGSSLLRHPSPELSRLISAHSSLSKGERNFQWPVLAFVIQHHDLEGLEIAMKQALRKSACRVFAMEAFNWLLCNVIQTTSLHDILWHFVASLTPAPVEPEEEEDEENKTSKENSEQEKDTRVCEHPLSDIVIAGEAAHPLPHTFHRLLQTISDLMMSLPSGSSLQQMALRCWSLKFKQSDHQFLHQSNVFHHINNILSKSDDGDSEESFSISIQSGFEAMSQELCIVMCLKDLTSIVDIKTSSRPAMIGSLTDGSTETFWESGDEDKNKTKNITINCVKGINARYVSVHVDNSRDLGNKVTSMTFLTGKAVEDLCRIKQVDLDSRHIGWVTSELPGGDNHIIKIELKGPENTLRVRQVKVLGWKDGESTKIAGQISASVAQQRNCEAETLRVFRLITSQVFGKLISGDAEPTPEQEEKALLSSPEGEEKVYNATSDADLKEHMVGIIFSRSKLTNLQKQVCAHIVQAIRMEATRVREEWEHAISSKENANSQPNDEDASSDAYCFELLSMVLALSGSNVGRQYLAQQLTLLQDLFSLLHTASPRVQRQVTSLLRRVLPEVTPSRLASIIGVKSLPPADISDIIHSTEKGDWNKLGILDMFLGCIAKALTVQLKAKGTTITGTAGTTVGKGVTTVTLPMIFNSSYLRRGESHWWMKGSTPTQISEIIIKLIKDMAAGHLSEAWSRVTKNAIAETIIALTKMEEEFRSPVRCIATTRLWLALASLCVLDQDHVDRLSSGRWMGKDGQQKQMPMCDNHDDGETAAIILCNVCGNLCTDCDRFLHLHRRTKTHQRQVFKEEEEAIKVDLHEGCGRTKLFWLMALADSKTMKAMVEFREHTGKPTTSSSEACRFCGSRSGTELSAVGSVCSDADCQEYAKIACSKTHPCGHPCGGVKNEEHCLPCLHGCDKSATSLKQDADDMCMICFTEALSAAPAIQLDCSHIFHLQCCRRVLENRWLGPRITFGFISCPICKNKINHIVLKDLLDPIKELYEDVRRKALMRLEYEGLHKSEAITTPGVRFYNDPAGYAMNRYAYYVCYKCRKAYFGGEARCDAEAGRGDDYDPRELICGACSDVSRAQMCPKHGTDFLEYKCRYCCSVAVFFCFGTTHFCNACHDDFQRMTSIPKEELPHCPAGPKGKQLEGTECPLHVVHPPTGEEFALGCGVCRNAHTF

Biological target: T1, Flag-Strep (FS)-Hey1 (UniProt Q9WV93)
T1 sequence: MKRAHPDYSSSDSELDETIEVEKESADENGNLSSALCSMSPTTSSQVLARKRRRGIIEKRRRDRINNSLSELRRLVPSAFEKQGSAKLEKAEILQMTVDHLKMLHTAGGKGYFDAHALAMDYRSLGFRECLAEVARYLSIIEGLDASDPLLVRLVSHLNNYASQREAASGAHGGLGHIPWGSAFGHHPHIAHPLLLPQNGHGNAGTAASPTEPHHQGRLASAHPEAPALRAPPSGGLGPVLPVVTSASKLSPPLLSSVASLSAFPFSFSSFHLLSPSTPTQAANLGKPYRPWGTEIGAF
Assay: affinity purification with mass spectrometry; tandem affinity purification of FS-Hey1 (anti-Flag M2 gel, Flag peptide elution, then StrepTactin beads, desthiobiotin elution) from whole cell lysates and nuclear extracts of Dox-induced 293tet-FS-Hey1 cells; non-induced cells as negative control; LC-MS/MS of gel slices

- binding: binds
Molecule: HES1 (Hairy and enhancer of split 1 isoform 1) (from UniProt Q14469 1-280)

- binding: binds
Molecule: PAM (Protein Associated with Myc, MYCBP2) (from UniProt O75592 1-4678)

- binding: binds
B1: FBXO45 (F-box protein 45), endogenous (protein, UniProt P0C2W1 1-286)
chain: MAAPAPGAGAASGGAGCSGGGAGAGAGSGSGAAGAGGRLPSRVLELVFSYLELSELRSCALVCKHWYRCLHGDENSEVWRSLCARSLAEEALRTDILCNLPSYKAKIRAFQHAFSTNDCSRNVYIKKNGFTLHRNPIAQSTDGARTKIGFSEGRHAWEVWWEGPLGTVAVIGIATKRAPMQCQGYVALLGSDDQSWGWNLVDNNLLHNGEVNGSFPQCNNAPKYQIGERIRVILDMEDKTLAFERGYEFLGVAFRGLPKVCLYPAVSAVYGNTEVTLVYLGKPLDG
